Common to all, as to experiment: pull-down
For one test, the target named is T1, CBP-Upf1-FL (S. cerevisiae, UniProt P30771 1-971).
T1 sequence (looked up): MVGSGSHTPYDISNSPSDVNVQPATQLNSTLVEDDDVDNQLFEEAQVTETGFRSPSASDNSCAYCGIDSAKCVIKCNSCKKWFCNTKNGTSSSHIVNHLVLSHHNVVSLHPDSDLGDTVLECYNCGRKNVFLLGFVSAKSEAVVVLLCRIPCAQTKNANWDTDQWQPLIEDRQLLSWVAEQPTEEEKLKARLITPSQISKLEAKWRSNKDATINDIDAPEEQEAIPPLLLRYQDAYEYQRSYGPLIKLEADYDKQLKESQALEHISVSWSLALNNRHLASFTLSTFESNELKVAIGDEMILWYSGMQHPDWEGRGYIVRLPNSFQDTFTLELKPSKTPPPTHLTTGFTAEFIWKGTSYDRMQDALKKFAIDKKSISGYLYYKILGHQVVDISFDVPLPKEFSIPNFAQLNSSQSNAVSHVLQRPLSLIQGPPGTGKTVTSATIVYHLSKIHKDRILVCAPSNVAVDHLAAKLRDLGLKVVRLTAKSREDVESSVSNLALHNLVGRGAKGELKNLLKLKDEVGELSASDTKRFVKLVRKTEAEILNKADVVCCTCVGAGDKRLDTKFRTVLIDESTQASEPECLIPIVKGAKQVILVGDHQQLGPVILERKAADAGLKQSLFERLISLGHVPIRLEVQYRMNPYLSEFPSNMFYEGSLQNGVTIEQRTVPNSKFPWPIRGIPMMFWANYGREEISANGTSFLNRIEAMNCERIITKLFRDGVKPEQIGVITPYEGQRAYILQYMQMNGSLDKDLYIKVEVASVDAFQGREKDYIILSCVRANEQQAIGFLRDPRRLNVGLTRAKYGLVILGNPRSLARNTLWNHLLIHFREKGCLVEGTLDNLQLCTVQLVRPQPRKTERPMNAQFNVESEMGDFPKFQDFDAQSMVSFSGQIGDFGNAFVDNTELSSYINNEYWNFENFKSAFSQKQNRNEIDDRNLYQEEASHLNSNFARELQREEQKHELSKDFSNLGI

In the next test the target is T2, CBP-Upf1-CH-HD (S. cerevisiae, UniProt P30771 54-851).
T2 sequence (looked up): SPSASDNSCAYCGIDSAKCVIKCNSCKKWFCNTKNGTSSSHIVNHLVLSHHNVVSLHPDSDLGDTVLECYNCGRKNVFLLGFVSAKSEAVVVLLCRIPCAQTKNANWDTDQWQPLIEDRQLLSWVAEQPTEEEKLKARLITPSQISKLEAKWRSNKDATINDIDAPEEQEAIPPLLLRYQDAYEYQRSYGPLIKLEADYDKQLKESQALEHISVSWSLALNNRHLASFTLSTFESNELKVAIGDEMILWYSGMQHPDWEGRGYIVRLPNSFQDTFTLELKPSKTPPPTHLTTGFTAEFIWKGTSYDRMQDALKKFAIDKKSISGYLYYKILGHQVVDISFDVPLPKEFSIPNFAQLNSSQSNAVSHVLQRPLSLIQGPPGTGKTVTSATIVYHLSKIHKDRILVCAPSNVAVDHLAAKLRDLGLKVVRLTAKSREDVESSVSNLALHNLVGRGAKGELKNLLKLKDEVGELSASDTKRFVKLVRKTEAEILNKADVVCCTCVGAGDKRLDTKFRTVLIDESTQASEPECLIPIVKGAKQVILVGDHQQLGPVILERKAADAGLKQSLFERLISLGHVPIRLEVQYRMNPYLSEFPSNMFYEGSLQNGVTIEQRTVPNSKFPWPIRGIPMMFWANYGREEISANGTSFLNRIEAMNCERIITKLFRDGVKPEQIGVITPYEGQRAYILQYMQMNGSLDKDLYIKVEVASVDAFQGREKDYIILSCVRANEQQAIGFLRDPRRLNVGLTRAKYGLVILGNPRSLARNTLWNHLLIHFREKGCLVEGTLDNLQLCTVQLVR

Test [1] deals with T3, CBP-Upf1-Ct (S. cerevisiae) (UniProt P30771).
T3 sequence: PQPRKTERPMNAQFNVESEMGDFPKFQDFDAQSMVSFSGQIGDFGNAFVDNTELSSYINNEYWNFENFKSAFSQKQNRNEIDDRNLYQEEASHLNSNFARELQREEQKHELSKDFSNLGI

The target of a further test is T4, CBP-Upf1-HD (S. cerevisiae, UniProt P30771 221-851).
T4 sequence (looked up): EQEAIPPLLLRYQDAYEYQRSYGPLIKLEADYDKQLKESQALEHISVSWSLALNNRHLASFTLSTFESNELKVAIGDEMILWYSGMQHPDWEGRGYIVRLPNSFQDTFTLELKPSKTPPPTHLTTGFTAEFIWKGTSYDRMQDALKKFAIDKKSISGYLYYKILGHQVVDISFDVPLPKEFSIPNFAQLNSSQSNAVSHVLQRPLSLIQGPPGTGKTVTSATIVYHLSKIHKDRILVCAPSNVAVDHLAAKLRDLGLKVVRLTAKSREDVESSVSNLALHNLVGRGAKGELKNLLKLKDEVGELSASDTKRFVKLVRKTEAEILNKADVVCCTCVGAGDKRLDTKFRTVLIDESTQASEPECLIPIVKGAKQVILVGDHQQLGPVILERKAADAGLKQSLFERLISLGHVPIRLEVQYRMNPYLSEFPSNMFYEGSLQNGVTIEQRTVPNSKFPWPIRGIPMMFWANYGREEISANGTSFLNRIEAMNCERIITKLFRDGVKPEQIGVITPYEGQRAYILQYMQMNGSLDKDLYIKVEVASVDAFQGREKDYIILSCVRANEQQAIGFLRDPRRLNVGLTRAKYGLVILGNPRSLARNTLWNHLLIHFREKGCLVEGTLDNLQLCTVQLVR

Another test deals with T5, CBP-Upf1-HD-Ct (S. cerevisiae, UniProt P30771 221-971).
T5 sequence (looked up): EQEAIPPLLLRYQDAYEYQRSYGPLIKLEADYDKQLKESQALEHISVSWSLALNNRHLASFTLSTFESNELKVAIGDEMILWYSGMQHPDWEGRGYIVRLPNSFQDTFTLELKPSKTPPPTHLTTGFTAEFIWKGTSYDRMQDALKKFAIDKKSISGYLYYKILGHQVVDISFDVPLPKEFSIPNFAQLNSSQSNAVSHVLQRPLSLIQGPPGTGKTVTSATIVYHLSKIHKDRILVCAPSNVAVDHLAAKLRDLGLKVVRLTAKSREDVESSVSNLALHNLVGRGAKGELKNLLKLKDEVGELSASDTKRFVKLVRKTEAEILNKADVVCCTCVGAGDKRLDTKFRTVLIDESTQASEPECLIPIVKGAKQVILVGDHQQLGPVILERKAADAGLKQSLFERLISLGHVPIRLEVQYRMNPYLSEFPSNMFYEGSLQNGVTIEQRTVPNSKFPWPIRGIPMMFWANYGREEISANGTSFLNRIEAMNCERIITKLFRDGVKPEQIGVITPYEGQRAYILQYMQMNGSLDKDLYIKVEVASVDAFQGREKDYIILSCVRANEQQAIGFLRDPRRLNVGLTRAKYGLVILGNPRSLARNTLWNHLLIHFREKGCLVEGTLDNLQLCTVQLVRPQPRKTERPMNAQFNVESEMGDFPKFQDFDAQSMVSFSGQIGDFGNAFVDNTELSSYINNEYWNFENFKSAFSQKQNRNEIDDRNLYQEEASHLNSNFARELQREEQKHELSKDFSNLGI

In test [2] the target is T6, GST-Dcp2-UBD (S. cerevisiae) (UniProt P53550).
T6 sequence: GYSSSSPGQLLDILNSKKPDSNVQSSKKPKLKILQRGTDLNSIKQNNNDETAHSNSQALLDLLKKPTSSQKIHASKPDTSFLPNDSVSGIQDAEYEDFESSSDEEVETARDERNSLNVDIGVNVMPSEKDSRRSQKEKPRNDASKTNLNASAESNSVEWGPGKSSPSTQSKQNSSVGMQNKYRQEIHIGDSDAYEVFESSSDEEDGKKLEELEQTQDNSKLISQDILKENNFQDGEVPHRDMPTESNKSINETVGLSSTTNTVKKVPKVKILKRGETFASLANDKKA

No constants are given. Whether binding was seen depends on the method and setting. Some entries that bind do so weakly or less than the wild type. Where a sequence is shown, tags or fusion partners need not be part of it.

B1: Upf2(933-1089)-His (domain or fragment, S. cerevisiae, UniProt P38798 933-1089, looked up)
chain: SDSDLEYGGDLDADRDIEMKRMYEEYERKLKDEEERKAEEELERQFQKMMQESIDARKSEKVVASKIPVISKPVSVQKPLLLKKSEEPSSSKETYEELSKPKKIAFTFLTKSGKKTQSRILQLPTDVKFVSDVLEEEEKLKTERNKIKKIVLKRSFD
As to B1, the binding entry in the test with CBP-Upf1-FL and with CBP-Upf1-CH-HD was “binds weakly” in each case.

B2: GST-Dcp2-UBD (domain or fragment, S. cerevisiae, UniProt P53550 434-720, looked up)
chain: T6 sequence
On to B2, for which the binding entry (in test [1]; in the test with CBP-Upf1-HD; with CBP-Upf1-HD-Ct) was “no binding” each time.

B3: CBP-Ebs1 (aa 1-591) (domain or fragment, UniProt Q03466 1-591)
chain: MEPSNTQKEDLPTAFNGIKSQLNSILKSNQLFQDYALLNGFLAFVHSKLNAAILTSIESQCGKSFAADLDSFDQSSISSILDFSWESVHYPIFKWFQMWRNYILFEKENKKQQTKFIDFRKMNSKMLKFFKTVQNFYVNVINTVYKKYDISVLLPKRIIQDLKLSDIENTTNVGDILAVKTFNSSSPLAHLIPTLFHRCLLFLGTAYRYKTLLEEISNKYSISNFKKSLDFFRLASLVLPSAGETYSQAGAIFLQTGNLGIAVFNFVKGMMTKMPSPVSIKNFGALMVDNKSSLNRSLHTTIMNTYLQESKGPRTPAKEILEFYFLGLFGSVWSPTSWRDDTKPNQLNNGIKLRHLENALYETMSARYLNNIKTIFHNLIITIGGFHLLLKRRSDVSAKTLKDLRSNELDYLNFAFKYIAHILNDIVKESWSENPEVSEILGMVRIINCWIKANPMVLQYSQSNLEFVNALAYLINDIVKKKPSPSFSITEHIPKRTYWFEEDLMVKGLSFVNFQLSDFDDYEKILEMDHSLDRLIGNPPLCDKLSASSEMLLRLQAVVNISSQLLQNNNCGVEWSDNKSRYIFNKKIGFK
In the case of B3, in test [2], the binding entry is “no binding”.

(Values after article doi:10.1101/2024.12.18.629111 (bioRxiv, 2024).)
